These results are taken from PubChem BioAssay AID1487 (National Center for Advancing Translational Sciences (NCATS), 2009).

Some of the results follow. Further columns of the screen follow, without active or inactive calls. The list favours compounds with an active or inconclusive main result. Words in brackets tell the shape of the fitted curve; partial curves, single points and poor fits give uncertain potencies.

The experiment can be described thus: qHTS Assay for Modulators of Lamin A Splicing. The settings on record: HeLa LMNA splicing GFP/RFP minigene ratio, 48 h. A digest of the protocol: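 S3 HeLa cells stably expressing lamin A-EGFP splicing minigene plus DsRed2, 600 cells/well, 48 h compound exposure at 37C. Laser-scanning cytometry; analysed as GFP (500-530 nm)/RFP (575-640 nm) total intensity ratio; 0.5% DMSO vehicle.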
(In general: Quantitative high-throughput screening tests each substance at several concentrations.)

Setting [1] is: measured here: RFP viability control channel.
Where [2] appears, read: measured here: GFP splicing reporter channel.

Broadly, the AC50 is the concentration giving half of the maximal activity seen. Turning to `Cc1nnsc1SCCNC(=O)Nc1ccc(Cl)cc1`, the AC50 under setting [1] is 35.5 µM [rising, single point]. With `COc1ccc(-c2cc(=O)c3c(O)cc(O)cc3o2)cc1`, the half-maximal activity concentration (AC50) by setting is: under setting [2], 12.6 µM [falling, single point]; under setting [1], 14.1 µM [falling, single point]. Consider `Clc1ccccc1Cn1c(/C=C/c2ccco2)nc2ccccc21`, for which the AC50 under setting [1] is 14.1 µM [falling, partial curve]. Regarding `O=C(CSc1nc(-c2ccccc2)c(-c2ccccc2)[nH]1)NCCN1C(=O)CSC1=O`, under setting [1], the AC50 is 22.4 µM [rising, single point]. `CCOc1ccccc1C(=O)N1CCN(C(c2ccccc2)c2ccccc2)CC1`: the concentration at half-maximal activity (AC50) is, setting by setting: under setting [2], 0.794 µM [falling, partial curve]; under setting [1], 12.6 µM [rising, single point]. As to `O=C(Nc1ccccc1)C1=C(c2ccccc2)S(=O)(=O)CCS1(=O)=O`, under setting [1], the AC50 is 2.51 µM [rising, partial curve]. For the molecule `OC[C@H]1O[C@@H](n2cnc3c(Nc4ccccc4)ncnc32)[C@H](O)[C@H]1O`, the AC50 is 15.8 µM [rising, single point] under setting [2] and 20 µM [rising, single point] under setting [1].

With `CC(C)(C)OC(=O)N1CCC[C@H]1c1nnc(SCc2ccc(Cl)cc2Cl)o1`, the concentration at half-maximal activity (AC50) is, setting by setting: under setting [2], 11.2 µM [rising, partial curve]; under setting [1], 12.6 µM [rising, partial curve]. Turning to `CCOC(=O)c1sc(NC(=O)c2cc(-c3ccccc3C)nc3ccccc23)c(C#N)c1C`, under setting [1], the concentration at half-maximal activity (AC50) was 15.8 µM [rising, single point].

Take `O=C1CCCN1c1ccc(S(=O)(=O)N2CCC(c3ccccc3)CC2)cc1`: the concentration at half-maximal activity (AC50) was 2.51 µM [rising, single point] under setting [2] and 2.82 µM [rising, full curve] under setting [1]. Regarding `C=CCc1cccc(/C=N/NC(=O)CNc2cccc3ccccc23)c1O`, the AC50 under setting [1] is 25.1 µM [rising, single point]. Take `Cc1ccc(-c2nc3ncccc3o2)cc1NC(=O)c1cccs1`: the AC50 is, setting by setting: under setting [2], 0.00501 µM [falling, full curve, poor fit]; under setting [1], 0.00316 µM [falling, full curve, poor fit]. Take `CC(C)(C)OC(=O)NNC(=S)NC1CCCCC1`: the AC50 under setting [2] was 35.5 µM [falling, partial curve, poor fit].

For `OCCN(CCO)c1ncnc2c1cnn2-c1ccc(F)cc1`, the AC50 is 0.00316 µM [falling, full curve] under setting [2] and 0.00316 µM [falling, full curve, poor fit] under setting [1]. With `O=C(Nc1ccc([N+](=O)[O-])cc1)Nc1ccc(OC(F)F)c(Cl)c1`, the AC50 is, setting by setting: under setting [2], 2.24 µM [rising, single point]; under setting [1], 12.6 µM [rising, partial curve].

Take `COc1ccccc1N1CCN(C(=O)c2ccc(S(=O)(=O)N3CCCCCC3)cc2)CC1`: the half-maximal activity concentration (AC50) under setting [1] is 10 µM [rising, single point]. `COCCSc1nnc(NC(=O)c2ccc3c(c2)OCO3)s1`: under setting [2], the AC50 was 5.62 µM [falling, partial curve, poor fit].

Take `Cc1csc2nc(COC(=O)c3ccccc3NC(=O)c3ccc(C(C)(C)C)cc3)cc(=O)n12`: the concentration at half-maximal activity (AC50) is, setting by setting: under setting [2], 35.5 µM [falling, single point]; under setting [1], 2.82 µM [falling, single point].

Consider `O=C(CCCn1c(=O)c2cccn2c2ccccc21)NCCc1ccc(Cl)cc1`, for which, under setting [2], the AC50 was 15.8 µM [falling, partial curve, poor fit]. Turning to `Cc1sc(NC(=O)c2cc(-c3ccc(Cl)cc3)nc3ccccc23)c(C(N)=O)c1C`, the concentration at half-maximal activity (AC50) is, setting by setting: under setting [2], 11.2 µM [falling, partial curve]; under setting [1], 10 µM [falling, partial curve].

In the case of `COc1ccc(-c2csc(NC(=O)c3ccc(OCC(=O)N4CCOCC4)c(OC)c3)n2)cc1OC`, the concentration at half-maximal activity (AC50) is 35.5 µM [falling, single point] under setting [2] and 0.794 µM [rising, full curve, poor fit] under setting [1]. `CCC(C)Cn1c(C)nc2ccccc21` (stereo not given): the AC50 is 17.8 µM [rising, partial curve] under setting [2] and 12.6 µM [rising, partial curve] under setting [1]. Turning to `Cc1nc(C)c(-c2csc(N)n2)s1`, the half-maximal activity concentration (AC50) under setting [1] was 11.2 µM [falling, single point]. `C/C(N)=C(/C#N)C(=O)CSc1nnc(Nc2c(C)cccc2C)s1`: the AC50 under setting [1] was 0.00447 µM [falling, full curve, poor fit].

In the case of `Cc1nc(N)c(Br)c(C)c1Br`, under setting [1], the concentration at half-maximal activity (AC50) was 0.00891 µM [falling, full curve, poor fit]. `COc1cc(CNC2CCCCCCC2)cc(Br)c1OCC#N`: the AC50 is, setting by setting: under setting [2], 14.1 µM [rising, single point]; under setting [1], 11.2 µM [rising, partial curve]. `Cc1nc2ccc(NC(=O)c3cc(S(=O)(=O)N4CCOCC4)ccc3C)cc2s1`: the half-maximal activity concentration (AC50) under setting [1] is 20 µM [rising, single point]. In the case of `O=C(COC(=O)CNC(=O)c1cccc([N+](=O)[O-])c1)Nc1ccccc1OC(F)F`, under setting [1], the half-maximal activity concentration (AC50) is 0.0708 µM [falling, full curve, poor fit]. Turning to `O=C(O)C(=O)/C(=C\c1cccc(Cl)c1)c1ccc2ccccc2n1`, the AC50 under setting [1] is 0.0794 µM [falling, full curve, poor fit]. Regarding `Cc1cc(C)cc(NC(=O)CSc2nc3[nH]ncc3c(=O)[nH]2)c1`, the concentration at half-maximal activity (AC50) under setting [1] was 11.2 µM [rising, partial curve, poor fit]. In the case of `Cn1c(-c2cccc3ccccc23)n[nH]c1=S`, the AC50 under setting [2] was 31.6 µM [falling, single point]. As for `CN1C(=O)C(N=Nc2ccccc2C(=O)O)N(C)C1=S` (stereo not given), the half-maximal activity concentration (AC50) was 22.4 µM [rising, partial curve, poor fit] under setting [2] and 35.5 µM [rising, single point] under setting [1].

`O=[N+]([O-])c1ccc(NC(=S)N2CCc3ccccc3C2)cc1`: the AC50 is 12.6 µM [rising, partial curve] under setting [2] and 22.4 µM [rising, partial curve] under setting [1]. As to `O=C(NCc1ccccc1F)c1ccc(CSc2nc3cccnc3n2Cc2ccccc2)cc1`, the half-maximal activity concentration (AC50) under setting [2] is 35.5 µM [falling, partial curve, poor fit]. In the case of `CCCC(=O)Nc1ccc(C(=O)N/N=C/c2ccc([N+](=O)[O-])o2)cc1`, the AC50 under setting [2] was 35.5 µM [rising, single point] and the concentration at half-maximal activity (AC50) under setting [1] was 6.31 µM [rising, partial curve]. Take `CCCN(Cc1cc2cc(C)ccc2[nH]c1=O)C(=O)c1cccc(OC)c1`: the half-maximal activity concentration (AC50) under setting [1] is 11.2 µM [rising, partial curve, poor fit]. For `NC(=O)C1(N2CCCCC2)CCN(CC(=O)Nc2ccc(Oc3ccccc3)cc2)CC1`, the concentration at half-maximal activity (AC50) under setting [2] was 11.2 µM [rising, partial curve, poor fit] and the AC50 under setting [1] is 22.4 µM [rising, single point]. `CS(=O)(=O)N(CCc1ccccc1)CC(=O)Nc1ccc2c(c1)OCO2`: the AC50 under setting [2] was 10 µM [rising, partial curve] and the AC50 under setting [1] was 20 µM [rising, partial curve]. With `N#Cc1nc(-c2ccc(COc3ccccc3)o2)oc1N1CCCCC1`, the AC50 under setting [2] was 11.2 µM [rising, partial curve, poor fit]. As to `O=C(/C(=C/c1ccc(Cl)cc1)c1nc2ccccc2[nH]1)c1cccs1`, under setting [1], the AC50 is 10 µM [rising, partial curve].

With `O=C(Nc1cccnc1)C1CCCN(S(=O)(=O)c2cccc3nsnc23)C1` (stereo not given), the AC50 under setting [1] was 25.1 µM [rising, single point]. For `Cc1cc(C)n2[nH]c(=O)c(N=Nc3ccc(S(N)(=O)=O)cc3)c2n1`, the AC50 runs as follows: under setting [2], 35.5 µM [rising, single point]; under setting [1], 0.355 µM [rising, partial curve, poor fit]. In the case of `CC(C(=O)OCC(=O)Nc1cccc(S(=O)(=O)N2CCOCC2)c1)N1C(=O)c2ccccc2C1=O` (stereo not given), under setting [1], the AC50 is 1.12 µM [falling, partial curve, poor fit].

For the molecule `CCn1c(C)nc2cc(C(=O)N/N=C(\C)c3ccccc3O)ccc21`, under setting [1], the concentration at half-maximal activity (AC50) is 3.98 µM [rising, partial curve, poor fit]. For the molecule `N=c1c2c(n(Cc3ccc(Cl)c(Cl)c3)c3c1CCC3)CCCC2`, the half-maximal activity concentration (AC50) under setting [1] was 25.1 µM [rising, single point]. As to `CCn1c(-c2cc(-c3ccc(C)c(C)c3)nc3ccccc23)n[nH]c1=S`, the concentration at half-maximal activity (AC50) is 0.0708 µM [falling, full curve, poor fit] under setting [2] and 25.1 µM [falling, partial curve, poor fit] under setting [1]. Consider `CC(C)Sc1snnc1-c1ccccc1`, for which the concentration at half-maximal activity (AC50) under setting [1] is 4.47 µM [falling, full curve]. Take `Cc1ccc(CNC(=O)Cc2ccc(-n3cccc3)cc2)cc1`: under setting [1], the AC50 was 5.01 µM [rising, full curve]. On to `COc1ccc(C(=O)CSc2n[nH]c(-c3ccncc3)n2)cc1[N+](=O)[O-]`, for which the half-maximal activity concentration (AC50) under setting [2] is 17.8 µM [rising, partial curve, poor fit] and the half-maximal activity concentration (AC50) under setting [1] was 0.794 µM [rising, full curve, poor fit].

As for `Cc1ccc(SCCNC(=S)Nc2ccc(C)cc2C)cc1`, the concentration at half-maximal activity (AC50) under setting [2] was 35.5 µM [rising, single point].

Turning to `C/C1=C2N=C(/C=C3N=C(/C(C)=C4\[N-]C(C)(C5N=C1C(C)(CCC(=O)NCC(C)OP(=O)([O-])O[C@H]1C(O)C(n6cnc7cc(C)c(C)cc76)O[C@@H]1CO)C5CC(N)=O)C(C)(CC(N)=O)C4CCC(N)=O)C(C)(CC(N)=O)C\3CCC(N)=O)C(C)(C)C/2CCC(N)=O.[CH2-]C1OC(n2cnc3c(N)ncnc32)C(O)C1O.[Co]` (stereo not given in full), the AC50 by setting is: under setting [2], 14.1 µM [rising, single point]; under setting [1], 0.0355 µM [rising, full curve]. For `COc1ccccc1NC(=O)Cn1cc(C(=O)c2ccco2)c2ccccc21`, the concentration at half-maximal activity (AC50) under setting [2] is 11.2 µM [falling, partial curve, poor fit] and the AC50 under setting [1] was 17.8 µM [falling, single point].
